In all, about 320,000 compounds went through this assay and about 22,000 (6.9%) were called active. This list was built around the results that the source calls inconclusive (neither active nor inactive); the mix of calls is not that of the screen. Calls follow the shape of the dose curve; as a rule, active = well fitted inhibition curve with a large enough effect; inconclusive = small, poorly fitted or top-dose-only effect, or another doubt; inactive = no such curve, though single readings can be large or run the other way. Potencies beside an inconclusive call are fits to weak or partial responses and may not hold up.
Assay: Primary qHTS for delayed death inhibitors of the malarial parasite plastid, 96 hour incubation
Conditions: P. falciparum luciferase reporter growth; series mostly up to 28.7 µM
Outline: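 Infected RBCs, 2% Hct / 0.05% parasitemia final; luciferase-reporter P. falciparum; cpd 96 h, 37 C, 5% CO2; luciferase detection reagent; luminescence.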
Potency is read from the fitted curve at half-maximal effect.

Q: With `Cn1c(N)c(-c2ccccc2)c2ccc([N+](=O)[O-])cc2c1=O` as the compound, how does the Potency read?
A: Its Potency is “inactive”.

Q: For `CCn1ccc(C(=O)Nc2sc3c(c2C(=O)OC)CCC3)n1`, which Potency is on record?
A: The Potency was active: 11.7 µM.

Q: With `CC(C)OC(=O)CC1C(=O)NCCN1C(=S)NC(=O)CCc1ccccc1` (stereo unspecified) as the compound, how does the Potency read?
A: Its Potency is “inactive”.

Q: With `C=C(C)[C@@H]1CC=C(CN2CCC(CCOC)(C(=O)OCC)CC2)CC1` as the compound, how does the Potency read?
A: The Potency was inconclusive: 10.4 µM [inhibitor, single point].

Q: With `O=C(NCCc1ccccc1)C(=Cc1ccc(C(=O)O)cc1)C(=O)NCCc1ccccc1` as the compound, how does the Potency read?
A: The Potency was inconclusive: 18.5 µM [inhibitor, single point].

Q: For `O=C1N/C(=C/c2cccn2-c2ccccc2)C(=O)N1Cc1ccccc1F`, which Potency is on record?
A: Its Potency is inconclusive: 18.5 µM [inhibitor, single point].

Q: With `CCC(C)Sc1nc(O)c(Cc2ccccc2)c(=O)[nH]1` (stereo unspecified) as the compound, how does the Potency read?
A: Its Potency is active: 2.62 µM.

Q: For `CN(C)C(CNC(=S)Nc1ccc(Cl)cc1)c1cccnc1` (stereo unspecified), which Potency is on record?
A: The Potency was inconclusive: 10.4 µM [inhibitor, single point].

Q: For `Cc1ccc(C)c(NC(=O)C(=O)NCC2CCCN2S(=O)(=O)c2cccs2)c1` (stereo unspecified), which Potency is on record?
A: Its Potency is “inactive”.

Q: Which Potency does the source give for `Cc1ccc2cccc(S(=O)(=O)N3CCCc4ccccc43)c2n1` here?
A: Its Potency is “inactive”.

Q: Which Potency does the source give for `CCOC(=O)N1CCC(NC(=O)CS(=O)Cc2nc(-c3ccc(OC)c(OC)c3)oc2C)CC1` (stereo unspecified) here?
A: The Potency was inconclusive: 6.57 µM [inhibitor, single point].

Q: For `Cc1ccc(-c2nnn(CC(=O)N(CC(=O)NCc3ccccc3)c3cccc(C)c3C)n2)o1`, which Potency is on record?
A: Its Potency is inconclusive: 18.5 µM [inhibitor, single point].

Q: With `CC(C)(C)c1ccc(NC(=O)COC(=O)CCc2nc3ccccc3c(=O)[nH]2)cc1` as the compound, how does the Potency read?
A: Its Potency is “inactive”.

Q: For `CC(C)(Oc1ccc(Cl)cc1)C(=O)NC1CC1`, which Potency is on record?
A: Its Potency is “inactive”.

Q: Which Potency does the source give for `Cc1ccsc1/C=N/NC(=O)Cn1cnc2ccccc21` here?
A: Its Potency is inconclusive: 7.38 µM [inhibitor, single point].

Q: For `CC(=O)OC1OCCOC1NC(=S)Nc1ccc(C)cc1` (stereo unspecified), which Potency is on record?
A: Its Potency is inconclusive: 10.4 µM [inhibitor, single point].

Q: For `Cc1cc2nc(CCN(C(=S)NCC(C)C)C3CCCC3)[nH]c2cc1C`, which Potency is on record?
A: Its Potency is inconclusive: 10.4 µM [inhibitor, partial curve, poor fit].

Q: For `CC1CCCCC1NC(=O)CCCc1nc2ccccc2c(=O)[nH]1` (stereo unspecified), which Potency is on record?
A: The Potency was inconclusive: 18.5 µM [inhibitor, single point].

Q: Which Potency does the source give for `CCCS(=O)(=O)c1nc(S(=O)(=O)c2ccc(C)cc2)c(N2CCCC(C)C2)s1` (stereo unspecified) here?
A: The Potency was inconclusive: 18.5 µM [inhibitor, single point].

Q: With `Cn1c(CNC(=O)c2cccs2)nnc1SCC(=O)Nc1ccccc1` as the compound, how does the Potency read?
A: Its Potency is inconclusive: 10.4 µM [inhibitor, single point].

Q: For `COc1ccc(N(CC(=O)NC2CCCCC2)C(=O)CNC(=O)c2cccs2)cc1OC`, which Potency is on record?
A: Its Potency is “inactive”.

Q: For `Cn1nc(C2CC2)cc1NC(=O)CC(CC(=O)O)c1ccccc1` (stereo unspecified), which Potency is on record?
A: Its Potency is inconclusive: 0.0522 µM [inhibitor, full curve, poor fit].

Q: With `CN(CC(=O)Nc1ccc(F)cc1)C(=O)CN1C(=O)c2cccc([N+](=O)[O-])c2C1=O` as the compound, how does the Potency read?
A: The Potency was inconclusive: 20.8 µM [inhibitor, partial curve, poor fit].

Q: For `COc1ccc(N(C(=O)c2snc(C(N)=O)c2N)C(C(=O)NC2CCCC2)c2ccc(C)o2)c(OC)c1` (stereo unspecified), which Potency is on record?
A: Its Potency is inconclusive: 14.7 µM [inhibitor, partial curve, poor fit].

Q: For `CN(Cc1ccc(Cl)cc1Cl)C(=O)c1cccc(S(=O)(=O)N2CCN(c3ccccc3)CC2)c1`, which Potency is on record?
A: The Potency was inconclusive: 18.5 µM [inhibitor, single point].

Q: For `COc1ccccc1CNC(=O)[C@H](Cc1c[nH]c2ccccc12)NC(=O)[C@@H]1Cc2ccccc2CN1`, which Potency is on record?
A: The Potency was active: 10.4 µM.

Q: Which Potency does the source give for `CSc1nc2cc(C)nn2c(-c2ccccc2Cl)c1C#N` here?
A: The Potency was “inactive”.

Q: Which Potency does the source give for `O=C(O)C1C2C=CC(O2)C1C(=O)Nc1cccc(C(F)(F)F)c1` (stereo unspecified) here?
A: The Potency was active: 10.4 µM.

Q: For `Nc1nc(Cl)nc2c1ncn2[C@@H]1O[C@H](CO)[C@@H](O)[C@H]1O`, which Potency is on record?
A: Its Potency is active: 6.57 µM.

Q: For `O=C(CCl)NCCCCCCCCCNC(=O)CCl`, which Potency is on record?
A: Its Potency is active: 1.47 µM.

Q: With `CCC(C)NCCOCCSc1ccc(Cl)cc1` (stereo unspecified) as the compound, how does the Potency read?
A: The Potency was inconclusive: 18.5 µM [inhibitor, partial curve, poor fit].

Q: Which Potency does the source give for `COc1ccc(Br)cc1S(=O)(=O)N1CC(C)OC(C)C1` (stereo unspecified) here?
A: The Potency was “inactive”.

Q: For `Cn1c(C(O)c2ccc(Br)cc2)nc(Cl)c1Cl` (stereo unspecified), which Potency is on record?
A: Its Potency is inconclusive: 3.29 µM [inhibitor, partial curve].

Q: Which Potency does the source give for `O=C(CCCn1cncn1)N1CCCC(N2CCN(c3ccc(F)cc3)CC2)C1` (stereo unspecified) here?
A: The Potency was inconclusive: 2.62 µM [inhibitor, partial curve, poor fit].

Q: With `COc1cc(CN2CCCC(CO)(Cc3cccc(Cl)c3)C2)cc2c1OCO2` (stereo unspecified) as the compound, how does the Potency read?
A: The Potency was “inactive”.

Q: For `S=c1[nH]cnc2scc(-c3ccc(Cl)cc3)c12`, which Potency is on record?
A: Its Potency is inconclusive: 13.1 µM [inhibitor, partial curve, poor fit].

Q: For `COc1cc(C2CC(=O)Oc3c(C(CCN4CCOCC4)c4ccc(N(C)C)cc4)c(OC)cc(OC)c32)cc(OC)c1OC` (stereo unspecified), which Potency is on record?
A: Its Potency is inconclusive: 10.4 µM [inhibitor, single point].

Q: With `CCOc1ccc(N(C)S(=O)(=O)c2ccc(C)c(C(=O)NCc3cccs3)c2)cc1` as the compound, how does the Potency read?
A: The Potency was inconclusive: 18.5 µM [inhibitor, single point].

Q: For `COC(=O)c1ccccc1NCC(=O)c1ccc(OC)cc1`, which Potency is on record?
A: The Potency was inconclusive: 9.28 µM [inhibitor, single point].

Q: With `Cc1ccc(NC(=O)C2CCCN2c2nn3c(=O)cc(C)nc3s2)cc1` (stereo unspecified) as the compound, how does the Potency read?
A: Its Potency is active: 11.7 µM.

Q: For `CC1CCCCN1S(=O)(=O)c1ccc(S(=O)(=O)NCCc2ccncc2)cc1` (stereo unspecified), which Potency is on record?
A: The Potency was inconclusive: 18.5 µM [inhibitor, single point].

Q: For `O=C(Nc1ccccc1-c1nc2ccccc2s1)c1ccc(Br)o1`, which Potency is on record?
A: The Potency was “inactive”.

Q: Which Potency does the source give for `CCCC(=O)Nn1cnc2c(c1=O)C1(CCCC1)Cc1ccccc1-2` here?
A: Its Potency is inconclusive: 18.5 µM [inhibitor, single point].

Q: With `Cc1c(C(=O)NC2CC2)oc2ccc(S(=O)(=O)N3CCCCCC3)cc12` as the compound, how does the Potency read?
A: The Potency was inconclusive: 11.7 µM [inhibitor, single point].

Q: For `COc1cc(-c2nnc(SCC(=O)c3ccc(C)cc3)o2)cc(OC)c1OC`, which Potency is on record?
A: The Potency was inconclusive: 4.15 µM [inhibitor, single point].

Q: For `O=c1[nH]c2ccccc2n1CCCN1CCN(C(c2ccccc2)c2ccccc2)CC1`, which Potency is on record?
A: Its Potency is active: 12 µM.

Q: Which Potency does the source give for `COc1ccc(CC(C#N)(CO)c2nc3ccccc3[nH]2)cc1` (stereo unspecified) here?
A: Its Potency is active: 2.33 µM.

Q: With `CCOc1ccccc1N1CCN(Cc2cnc(-c3ccccc3)[nH]2)CC1` as the compound, how does the Potency read?
A: The Potency was active: 9.28 µM.

Q: With `O=C(C1CCC1)N1CCc2cc(S(=O)(=O)NC3CCCC3)ccc21` as the compound, how does the Potency read?
A: Its Potency is inconclusive: 8.28 µM [inhibitor, partial curve].

Q: Which Potency does the source give for `COc1cccc(NC(=O)CSc2nnc(Cc3ccc(OC)c(OC)c3)o2)c1` here?
A: The Potency was inconclusive: 14.7 µM [inhibitor, single point].

Q: For `CC(C)NC(=O)CN1CCN(Cc2nc(-c3cccs3)no2)CC1`, which Potency is on record?
A: Its Potency is inconclusive: 16.5 µM [inhibitor, single point].

Q: Which Potency does the source give for `COc1ccc(S(=O)(=O)N2CCC(C(=O)NCc3cccnc3)CC2)cc1C` here?
A: Its Potency is inconclusive: 3.7 µM [inhibitor, full curve, poor fit].

Q: For `Cc1cccnc1-n1c(CCN2C(=O)c3ccccc3C2=O)nc2ccccc2c1=O`, which Potency is on record?
A: The Potency was active: 3.29 µM.

Q: For `COc1ccc(C(=O)N2CCN(Cc3ccc(OC)c(OC)c3)CC2)cc1`, which Potency is on record?
A: The Potency was “inactive”.

Q: With `COc1ccc(OC)c(C2CC(c3ccc(NS(C)(=O)=O)cc3)=NN2C(=O)c2ccccc2)c1` (stereo unspecified) as the compound, how does the Potency read?
A: The Potency was inconclusive: 18.5 µM [inhibitor, single point].

Q: Which Potency does the source give for `COc1ccc(NC(=O)CN(C)CC(=O)Nc2ccc(C)c(S(=O)(=O)N3CCCCC3)c2)cc1` here?
A: Its Potency is inconclusive: 10.4 µM [inhibitor, partial curve].

Q: Which Potency does the source give for `COc1cccc(C(=O)N/N=C(/c2ccccc2)c2ccccn2)c1` here?
A: Its Potency is inconclusive: 1.04 µM [inhibitor, full curve, poor fit].

Q: Which Potency does the source give for `O=S(=O)(c1ccccc1)N1N=C(c2cccs2)CC1c1ccc(F)cc1` (stereo unspecified) here?
A: The Potency was active: 9.28 µM.

Q: With `Cc1ccccc1CSCC(=O)Nc1ccccc1F` as the compound, how does the Potency read?
A: The Potency was inconclusive: 11.7 µM [inhibitor, partial curve, poor fit].

Q: Which Potency does the source give for `COc1ccc(S(=O)(=O)N(CC(=O)Nc2ccc3c(c2)OCO3)c2ccccc2OC)cc1` here?
A: The Potency was inconclusive: 10.4 µM [inhibitor, single point].

Q: For `CCOc1ccc(-c2[nH]nc3c2C(c2ccc4c(c2)OCO4)C(C#N)=C(N)O3)cc1OC` (stereo unspecified), which Potency is on record?
A: Its Potency is active: 13.1 µM.

Q: For `O=C(NCCN1CCOCC1)c1cc2cc([N+](=O)[O-])ccc2s1`, which Potency is on record?
A: Its Potency is “inactive”.

Q: For `CCCCOc1ccc(NC(=O)C(=O)NCCCn2ccnc2)cc1`, which Potency is on record?
A: The Potency was inconclusive: 11.7 µM [inhibitor, partial curve].

Q: For `O=c1oc2ccccc2n1CCCOc1ccccc1`, which Potency is on record?
A: The Potency was active: 11.7 µM.

Q: For `Cc1cccn2c(CN(C)CC3CCCCO3)c(C(=O)N3CCCCC3)nc12` (stereo unspecified), which Potency is on record?
A: The Potency was inconclusive: 18.5 µM [inhibitor, single point].

Q: Which Potency does the source give for `CCCCNC(=O)c1cccc(S(=O)(=O)N2CC3(C)CC2CC(C)(C)C3)c1` (stereo unspecified) here?
A: The Potency was active: 11.7 µM.

Q: For `CC1CCN(C2CC(=O)N(c3ccccc3)C2=O)CC1` (stereo unspecified), which Potency is on record?
A: The Potency was “inactive”.

Q: With `CC(C)n1c(SCC(=O)c2ccc3c(c2)OCCO3)nc2c1c(=O)n(C)c(=O)n2C` as the compound, how does the Potency read?
A: The Potency was “inactive”.

Q: Which Potency does the source give for `O=C(N/N=C/c1cccs1)/C(=C/c1ccccc1)NC(=O)c1ccccc1` here?
A: Its Potency is “inactive”.

Q: With `O=C(Cc1ccc(F)cc1)Nc1c2c(nn1-c1cccc(Cl)c1)CS(=O)C2` (stereo unspecified) as the compound, how does the Potency read?
A: The Potency was “inactive”.

Q: Which Potency does the source give for `O=C(O)CN1C(=O)C2C3CC(C2C1=O)C1C(c2ccccc2)c2sc(=O)[nH]c2SC31` (stereo unspecified) here?
A: The Potency was inconclusive: 11.7 µM [inhibitor, single point].

From PubChem BioAssay AID504834 (National Center for Advancing Translational Sciences (NCATS), 2011)
